Results published in article PMC3901670.
These are yes or no findings as the source states them, for the method shown. Binding seen in cells or lysates may run through a third protein. Some entries that bind do so weakly or less than the wild type. Sequences can lack the tags named with a protein.

Key:
[1] = target: GST-PINK1(156–509), kinase domain (human) (UniProt Q9BXM7); assay: pull-down; GST fusion from E. coli crude extract held on glutathione agarose beads and washed with PBS; incubated with 50 µg of protein from the supernatant of E. coli crude extract with His-PINK1 or His-BAG5 in 0.25 ml HNTG buffer (20 mM HEPES-KOH pH 7.5, 100 mM NaCl, 0.1% Triton X-100, 10% glycerol), 2 h at 4°C; immunoblot; only the target purified
[2] = target: GST-PINK1(1–581) (human) (UniProt Q9BXM7); assay: as above

B1: His-BAG5 (protein, UniProt Q9UL15 1-447)
chain: MDMGNQHPSISRLQEIQKEVKSVEQQVIGFSGLSDDKNYKKLERILTKQLFEIDSVDTEGKGDIQQARKRAAQETERLLKELEQNANHPHRIEIQNIFEEAQSLVREKIVPFYNGGNCVTDEFEEGIQDIILRLTHVKTGGKISLRKARYHTLTKICAVQEIIEDCMKKQPSLPLSEDAHPSVAKINFVMCEVNKARGVLIALLMGVNNNETCRHLSCVLSGLIADLDALDVCGRTEIRNYRREVVEDINKLLKYLDLEEEADTTKAFDLRQNHSILKIEKVLKRMREIKNELLQAQNPSELYLSSKTELQGLIGQLDEVSLEKNPCIREARRRAVIEVQTLITYIDLKEALEKRKLFACEEHPSHKAVWNVLGNLSEIQGEVLSFDGNRTDKNYIRLEELLTKQLLALDAVDPQGEEKCKAARKQAVRLAQNILSYLDLKSDEWEY
Question: How did the binding [1] turn out when B1 was run?
Answer: binds

Question: And the binding [2]?
Answer: binds
